Results of single-concentration screens

Chains of the proteins cited; added tags and fusions are not shown. Residues count along the entry.
UniProt A4I591, 1-473: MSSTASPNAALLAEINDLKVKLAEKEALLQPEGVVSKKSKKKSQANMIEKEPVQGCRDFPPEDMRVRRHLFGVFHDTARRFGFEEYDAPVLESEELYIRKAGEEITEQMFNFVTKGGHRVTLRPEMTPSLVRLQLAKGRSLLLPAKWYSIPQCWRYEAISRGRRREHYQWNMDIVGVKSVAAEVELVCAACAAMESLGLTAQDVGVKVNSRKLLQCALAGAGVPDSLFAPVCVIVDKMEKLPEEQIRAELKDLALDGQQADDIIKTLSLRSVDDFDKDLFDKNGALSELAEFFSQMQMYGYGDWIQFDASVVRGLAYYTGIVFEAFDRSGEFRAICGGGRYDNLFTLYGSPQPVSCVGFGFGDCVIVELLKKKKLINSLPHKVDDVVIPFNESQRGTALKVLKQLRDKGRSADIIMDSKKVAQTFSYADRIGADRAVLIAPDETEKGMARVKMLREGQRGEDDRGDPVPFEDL

LiHisRS: 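Enzyme assay of histidyl-tRNA synthetase; the read-out is not stated. Target: Histidine-tRNA ligase, Leishmania infantum (UniProt A4I591). Compounds at 30 µM. Direction is inferred from retests: higher values go with stronger inhibition. The assay is labelled LdHisRS but filed under L. infantum. Size under these conditions: about 69,000 compounds, about 410 of them at 50% or above in at least one test.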
Toxoplasma: 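Assay of Toxoplasma gondii numbers, read through their beta-galactosidase reporter with a colour substrate. Tested at 10 µM. The record gives no direction; the compounds picked for IC50 retests had high values, so higher reads as fewer parasites. About 67,000 compounds were tested under these conditions; 0.38% (about 260) showed 50% or more at least once.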

The filed quantity is “Percent Effect” (%).
The controls that fix the scale are not given in the record; negative values are as filed.
Compounds were drawn at random from those tested, without regard to their results.
A dash means the value is not listed here; it may have been measured.

| SMILES | LiHisRS | Toxoplasma |
|---|---|---|
| `Cc1cnn(CCNCc2nc(CNC(=O)c3ccccc3)no2)c1` | 10.91 | 5.073 |
| `Cc1occc1C(=O)N1CCC[C@]2(C[C@@H](OCc3ccccn3)CO2)C1` | 20 | - |
| `Cn1cc(CN2CCCC3(CCCN3S(C)(=O)=O)C2)cn1.O=C(O)C(F)(F)F` (stereo unspecified) | - | -19.36 |
| `Cn1nnc2c1CCN(S(C)(=O)=O)C2COCc1ccccc1` (stereo unspecified) | -7 | 5.869 |
| `CCCc1nc(CN(CC)C(=O)c2ccc(S(C)(=O)=O)cc2)no1` | 18.99 | -15.46 |
| `O=C(CN1CCCC1c1nc(-c2ccccc2)no1)N1CCOCC1` (stereo unspecified) | 6.25 | 11.61 |
| `CCCS(=O)(=O)N1CCCC(c2cccc(C(=O)O)c2)C1` (stereo unspecified) | 11.48 | -14.32 |
| `CN(CCc1nccs1)C(=O)C1(C#N)CCCCC1` | 7.965 | -3.427 |
| `O=C(O)C(F)(F)F.[H][C@@]12CCN(Cc3ccc(C)s3)C[C@]1(COCC(=O)N(C)C)CCO2` | - | 32.08 |
| `O=C(Cc1ccsc1)N1CCCC(CNS(=O)(=O)Cc2ccccc2)C1` (stereo unspecified) | 6.612 | -1.403 |
| `COCC(=O)N[C@H](C(=O)NC(C)c1cc(C)ccc1C)C(C)C` (stereo partly specified) | 24.24 | -2.598 |
| `O=C(CC1OCCc2ccsc21)NCC1CC1` (stereo unspecified) | 16.67 | -4.866 |
| `c1cnc2c(c1)cc(C1CCOCC1)n2CCN1CCOCC1` | 22.22 | - |
| `Cc1nnc(NC(=O)NCc2ccc(N3CCC(C)CC3)nc2)s1` | 5.769 | 1.571 |
| `COc1ccc(CN2CCc3c(CNC(=O)CC#N)nn(C)c3C2)cc1` | -385.5 | - |
| `O=C(NC1CCS(=O)(=O)C1)c1cc(Sc2ncccn2)ccn1` (stereo unspecified) | 5.618 | 5.964 |
| `O=C(O)C(F)(F)F.O=C(O)C(F)(F)F.[H][C@@]12CN(C(=O)N(C)C)C[C@]1([H])OCCN2CCN(C)C` | - | -0.1596 |
| `CC(C)Cc1noc(CN2CCCC(CNS(N)(=O)=O)C2)n1` (stereo unspecified) | 12 | 1.695 |
| `CO[C@H]1CCN(S(=O)(=O)N(C)C)[C@@H]2CN(Cc3cccnc3)C[C@H]12` | 23.08 | - |
| `Cc1cccc2c1nc(CCO)n2-c1ccc(NS(C)(=O)=O)nc1` | 31.15 | 6.087 |
| `O=C(CCNc1ncccn1)N1CCCN(c2nccs2)CC1` | 18.42 | 29.8 |
| `[H][C@@]12CCN(C(=O)NCC)C[C@]1([H])CCN(CCN1CCNC1=O)C(=O)C2` | - | 8.108 |
| `CC(C)CNC(=O)CNC(=O)NCC(O)c1ccc2ccccc2c1` (stereo unspecified) | 10.96 | -17.03 |
| `[H][C@]12CCN(C(=O)NC)CC[C@@]1([H])S(=O)(=O)N(Cc1cccc(OC)c1)C2` | - | -10.27 |
| `CCN1CCCC(c2cc(Nc3cnccn3)nc(C)n2)C1` (stereo unspecified) | 14 | 24.54 |
| `COCC(C)(C)NS(=O)(=O)C1CS(=O)(=O)c2ccccc21` (stereo unspecified) | 28.57 | 12.73 |
| `O=c1[nH]c2ncccc2n1C1CCCC1` | 18.75 | 5.709 |
| `O=C(NCCCNC(=O)c1cccc(O)c1)Nc1ccc(F)cc1F` | 14.29 | 0.7541 |
| `O=C(O)C(F)(F)F.[H][C@@]12COC[C@@H](CC(=O)N3CCCC3)[C@]1([H])CN(Cc1ccccc1)C2` | - | -15.34 |
| `CCN(C(=O)Cn1cc(NC(=O)C(C)(C)C)cn1)c1ccccc1` | 2.073 | 3.557 |
| `Cc1nccc(N[C@H]2CN(CCC(=O)NC3CCCC3)C[C@@H]2C2CC2)n1` | 8.197 | -12.89 |
| `N#CCC(=O)NCc1nnc2n1CCN(Cc1ccco1)C2` | 5.128 | -2.074 |
| `CCc1nc(C)c(CNC(=O)CCCN2CCCCC2)s1` | 5.479 | 2.256 |
| `CCN(C)CC1CCN(C(=O)Nc2ccc(C)cc2)C1` (stereo unspecified) | 5.263 | 0.9604 |
| `O=S(=O)(Cc1ccccc1CN1CCOCC(O)C1)c1ccccc1` (stereo unspecified) | 1.613 | - |
| `Cc1nc(CNCc2cccnc2Oc2ccc(C)c(F)c2F)c[nH]1` | -3.03 | 1.443 |
| `O=C(COC1CCCCC1)Nc1ccn(CCc2ccncc2)n1` | 2.74 | -10.83 |
| `c1cc(CN2C[C@@H]3OCCN(CC4CC4)[C@@H]3C2)n[nH]1` | 11.88 | - |
| `CO[C@@H]1CC[C@H]2[C@H]1OCCN2C(=O)COc1ccc(F)cc1` | 0 | - |
| `Cc1ccc2c(ccn2CCC(=O)NC[C@@H]2CCCN3CCCC[C@H]23)c1` | 7.767 | - |
| `c1cc(NC2CC3(CCN(Cc4cc[nH]n4)C3)C2)ncn1` (stereo unspecified) | 16.67 | -2.755 |
| `O=C1COc2cc(S(=O)(=O)NCCC3=CCCCC3)c(Br)cc2N1` | 24.24 | -6.062 |
| `O=C(O)C(F)(F)F.[H][C@@]12CNC(=O)[C@@H](C)[C@]1([H])CN(CCc1ccccc1)C2` | - | 5.385 |
| `CSCCC(NC(N)=O)C(=O)NCc1ccc(-n2cccn2)cc1` (stereo unspecified) | 13.73 | 12.78 |
| `CN(CCCC#N)C1CCCN(Cc2noc(C3CC3)n2)C1` (stereo unspecified) | 18.27 | -3.838 |
| `COCCN1CCN(c2ccc(C)nn2)Cc2ccc(C)nc21` | 21.78 | - |
| `Cn1cnc2c1C(COCC1CCOCC1)CN(C(=O)c1ccco1)C2` (stereo unspecified) | 14.71 | - |
| `CC(CN1CCOC1=O)NC(=O)c1cccc(C#N)c1` (stereo unspecified) | 13.33 | 11.24 |
| `CCc1cc(C(F)(F)F)c2c(C)nn(CC(=O)O)c2n1` | 11.43 | 2.112 |
| `CSc1nccc(NCC2CNCCOC2)n1` (stereo unspecified) | 4.712 | 1.311 |
| `Cc1cnn(C2CCCN(C(=O)c3cn4cccnc4n3)C2)c1` (stereo unspecified) | 16.67 | 3.389 |
| `Cc1ccccc1-c1cc(C(=O)N2CCn3c(C)nnc3C2)[nH]n1` | 7.2 | -17.93 |
| `Cc1nc(CN2CCN(C(=O)c3ccn(C)c(=O)c3)CC2)cs1` | 21.62 | -1.406 |
| `CC(C)(NCc1cccc(O)c1)c1ccc2c(c1)OCO2` | 18.33 | 4.176 |
| `CN(Cc1noc(C2CC2)n1)C1CCN(CCc2cccs2)C1` (stereo unspecified) | 6.838 | -10.52 |
| `Cc1ccc(C(=O)N(C2CC2)C2CC(=O)NC2=O)cc1F` (stereo unspecified) | 8.475 | -16.17 |
| `CCCn1nccc1-c1cc(C2CCN(S(C)(=O)=O)CC2)nc(C)n1` | -2.069 | -1.513 |
| `CCC(CC)c1cc(CNC(=O)N2CCCC(c3ncc[nH]3)C2)on1` (stereo unspecified) | 8.197 | -8.522 |
| `[H][C@@]12CCN(C[C@@H]1CN(C)c1ccccc1)[C@@H](CNC(=O)COC)C2` | - | 3.43 |
| `Cc1noc([C@H]2C[C@@H]3CCN(CC4CC4)C[C@H]3O2)n1` | 14.56 | - |
| `Cc1noc(C)c1CN1C(=O)[C@H]2CC[C@@H]1CN(Cc1nccs1)C2` | 12.12 | - |
| `COc1ccc(-n2cc(CNC(=O)c3cscn3)nn2)cc1` | 14.58 | 8.947 |
| `CN(C)Cc1cnc2n1CCN(C(=O)C1CC=CC1)CC2` | 16 | -23.77 |
| `CC(C)c1nn(C)c(N(C)C)c1CNC1CCC(O)CC1` (stereo unspecified) | 15.08 | 12.16 |
| `O=C(c1ccsc1)N1C[C@@H]2CCN(C(=O)c3cccc(F)c3)[C@@H]2C1` | 11.65 | - |
| `COC(=O)COc1cccc(NS(=O)(=O)c2cc(C(=O)O)cs2)c1` | -6.383 | -27.29 |

The first 5 entries again:

SMILES	LiHisRS	Toxoplasma
Cc1cnn(CCNCc2nc(CNC(=O)c3ccccc3)no2)c1	10.91	5.073
Cc1occc1C(=O)N1CCC[C@]2(C[C@@H](OCc3ccccn3)CO2)C1	20	-
Cn1cc(CN2CCCC3(CCCN3S(C)(=O)=O)C2)cn1.O=C(O)C(F)(F)F (stereo unspecified)	-	-19.36
Cn1nnc2c1CCN(S(C)(=O)=O)C2COCc1ccccc1 (stereo unspecified)	-7	5.869
CCCc1nc(CN(CC)C(=O)c2ccc(S(C)(=O)=O)cc2)no1	18.99	-15.46

Source: ChEMBL document CHEMBL3988442, “University of Dundee, Small-Polar-MMV Screening Library” (2021).